The supplement of paper PMC10849652
The other results are listed elsewhere or left out.

Protein sequences, listed by entry. Tags and fused reporters are not part of them. Lines headed by an entry give the natural chain unless they say otherwise; changes in a name come on top.
UniProt Q15843, whole entry, looked up: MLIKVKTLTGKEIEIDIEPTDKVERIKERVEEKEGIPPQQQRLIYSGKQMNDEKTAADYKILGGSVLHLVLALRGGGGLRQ
UniProt Q9UN36: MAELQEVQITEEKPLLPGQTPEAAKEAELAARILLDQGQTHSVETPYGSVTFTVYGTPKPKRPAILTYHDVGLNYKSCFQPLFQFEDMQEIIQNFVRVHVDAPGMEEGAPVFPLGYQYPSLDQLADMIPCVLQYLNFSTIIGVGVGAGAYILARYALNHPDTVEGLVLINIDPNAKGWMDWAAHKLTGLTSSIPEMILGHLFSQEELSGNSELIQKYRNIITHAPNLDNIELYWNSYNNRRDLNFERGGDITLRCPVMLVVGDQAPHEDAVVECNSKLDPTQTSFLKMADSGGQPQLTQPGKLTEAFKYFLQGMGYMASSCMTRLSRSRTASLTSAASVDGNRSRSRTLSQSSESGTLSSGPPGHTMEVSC
UniProt Q9BYG3: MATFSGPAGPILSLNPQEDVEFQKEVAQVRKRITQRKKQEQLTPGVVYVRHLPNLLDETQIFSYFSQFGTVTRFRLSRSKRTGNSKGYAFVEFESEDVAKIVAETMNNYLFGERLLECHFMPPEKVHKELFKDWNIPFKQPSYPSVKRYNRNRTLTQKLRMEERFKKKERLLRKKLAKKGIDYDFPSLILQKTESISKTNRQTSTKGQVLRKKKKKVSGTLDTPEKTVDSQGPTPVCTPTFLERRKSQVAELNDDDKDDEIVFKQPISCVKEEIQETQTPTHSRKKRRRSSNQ
UniProt Q9UMS0: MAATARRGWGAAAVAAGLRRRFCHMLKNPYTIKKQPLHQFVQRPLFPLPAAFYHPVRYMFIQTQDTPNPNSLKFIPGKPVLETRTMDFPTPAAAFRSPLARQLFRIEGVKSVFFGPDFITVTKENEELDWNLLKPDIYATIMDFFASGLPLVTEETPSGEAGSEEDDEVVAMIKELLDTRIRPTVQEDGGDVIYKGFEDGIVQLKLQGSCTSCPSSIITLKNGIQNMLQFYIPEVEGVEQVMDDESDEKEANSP
UniProt Q8NHV4, whole entry, looked up: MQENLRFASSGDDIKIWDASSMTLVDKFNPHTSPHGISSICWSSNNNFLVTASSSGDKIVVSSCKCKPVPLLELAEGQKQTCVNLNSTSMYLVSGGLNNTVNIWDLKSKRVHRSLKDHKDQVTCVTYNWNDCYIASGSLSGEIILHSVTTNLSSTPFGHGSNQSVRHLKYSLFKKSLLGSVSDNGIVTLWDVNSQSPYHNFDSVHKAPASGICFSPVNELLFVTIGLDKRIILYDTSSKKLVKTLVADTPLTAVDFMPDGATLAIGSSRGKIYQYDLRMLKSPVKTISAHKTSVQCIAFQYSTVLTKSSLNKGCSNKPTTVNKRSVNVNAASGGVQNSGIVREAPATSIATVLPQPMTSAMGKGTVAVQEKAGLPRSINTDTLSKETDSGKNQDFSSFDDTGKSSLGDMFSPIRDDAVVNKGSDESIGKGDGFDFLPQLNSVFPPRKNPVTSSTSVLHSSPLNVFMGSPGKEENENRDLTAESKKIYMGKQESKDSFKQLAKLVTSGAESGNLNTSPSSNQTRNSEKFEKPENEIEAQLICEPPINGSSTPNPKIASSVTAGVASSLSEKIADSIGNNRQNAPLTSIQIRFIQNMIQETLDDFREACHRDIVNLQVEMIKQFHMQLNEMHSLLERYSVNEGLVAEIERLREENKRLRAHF
UniProt Q9Y221: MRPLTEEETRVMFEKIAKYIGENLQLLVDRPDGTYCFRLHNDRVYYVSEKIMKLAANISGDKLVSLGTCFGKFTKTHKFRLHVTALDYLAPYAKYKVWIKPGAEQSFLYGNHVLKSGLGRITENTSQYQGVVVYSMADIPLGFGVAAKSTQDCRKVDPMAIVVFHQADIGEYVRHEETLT
UniProt Q86X76: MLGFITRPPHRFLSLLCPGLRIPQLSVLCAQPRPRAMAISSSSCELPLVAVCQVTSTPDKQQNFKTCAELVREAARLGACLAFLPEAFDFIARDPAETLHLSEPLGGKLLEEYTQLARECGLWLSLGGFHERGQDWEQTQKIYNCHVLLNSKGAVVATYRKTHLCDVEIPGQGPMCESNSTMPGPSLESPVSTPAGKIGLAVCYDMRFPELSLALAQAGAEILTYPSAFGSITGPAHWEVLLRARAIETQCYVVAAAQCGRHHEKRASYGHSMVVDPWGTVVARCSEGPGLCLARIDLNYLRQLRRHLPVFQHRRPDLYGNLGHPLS
UniProt Q9NX02: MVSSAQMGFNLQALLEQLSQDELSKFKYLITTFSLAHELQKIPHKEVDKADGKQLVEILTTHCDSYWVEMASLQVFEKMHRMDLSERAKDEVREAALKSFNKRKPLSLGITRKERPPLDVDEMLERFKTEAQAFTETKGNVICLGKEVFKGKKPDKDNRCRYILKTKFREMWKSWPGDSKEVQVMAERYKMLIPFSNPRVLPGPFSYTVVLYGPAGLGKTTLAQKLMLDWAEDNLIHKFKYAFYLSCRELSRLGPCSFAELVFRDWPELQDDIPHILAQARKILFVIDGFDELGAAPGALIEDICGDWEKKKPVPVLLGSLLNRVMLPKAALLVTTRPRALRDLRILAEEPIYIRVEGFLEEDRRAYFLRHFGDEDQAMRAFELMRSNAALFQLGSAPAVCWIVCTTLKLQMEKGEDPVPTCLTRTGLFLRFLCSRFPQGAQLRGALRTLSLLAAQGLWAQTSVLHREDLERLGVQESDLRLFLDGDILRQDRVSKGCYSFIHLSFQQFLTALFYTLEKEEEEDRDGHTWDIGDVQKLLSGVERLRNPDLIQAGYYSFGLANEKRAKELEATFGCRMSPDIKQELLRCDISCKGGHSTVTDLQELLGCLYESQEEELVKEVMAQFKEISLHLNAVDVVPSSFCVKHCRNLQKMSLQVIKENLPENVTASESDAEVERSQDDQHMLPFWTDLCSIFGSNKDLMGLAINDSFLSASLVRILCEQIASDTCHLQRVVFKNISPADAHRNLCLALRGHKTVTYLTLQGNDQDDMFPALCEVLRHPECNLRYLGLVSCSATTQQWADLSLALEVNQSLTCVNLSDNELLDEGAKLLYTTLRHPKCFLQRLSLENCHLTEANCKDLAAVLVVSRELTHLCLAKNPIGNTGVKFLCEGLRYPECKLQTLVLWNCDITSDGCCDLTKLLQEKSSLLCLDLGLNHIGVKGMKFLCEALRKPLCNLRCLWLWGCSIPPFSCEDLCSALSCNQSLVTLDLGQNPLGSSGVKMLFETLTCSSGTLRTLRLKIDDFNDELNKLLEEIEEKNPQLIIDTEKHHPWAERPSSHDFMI
UniProt P46934: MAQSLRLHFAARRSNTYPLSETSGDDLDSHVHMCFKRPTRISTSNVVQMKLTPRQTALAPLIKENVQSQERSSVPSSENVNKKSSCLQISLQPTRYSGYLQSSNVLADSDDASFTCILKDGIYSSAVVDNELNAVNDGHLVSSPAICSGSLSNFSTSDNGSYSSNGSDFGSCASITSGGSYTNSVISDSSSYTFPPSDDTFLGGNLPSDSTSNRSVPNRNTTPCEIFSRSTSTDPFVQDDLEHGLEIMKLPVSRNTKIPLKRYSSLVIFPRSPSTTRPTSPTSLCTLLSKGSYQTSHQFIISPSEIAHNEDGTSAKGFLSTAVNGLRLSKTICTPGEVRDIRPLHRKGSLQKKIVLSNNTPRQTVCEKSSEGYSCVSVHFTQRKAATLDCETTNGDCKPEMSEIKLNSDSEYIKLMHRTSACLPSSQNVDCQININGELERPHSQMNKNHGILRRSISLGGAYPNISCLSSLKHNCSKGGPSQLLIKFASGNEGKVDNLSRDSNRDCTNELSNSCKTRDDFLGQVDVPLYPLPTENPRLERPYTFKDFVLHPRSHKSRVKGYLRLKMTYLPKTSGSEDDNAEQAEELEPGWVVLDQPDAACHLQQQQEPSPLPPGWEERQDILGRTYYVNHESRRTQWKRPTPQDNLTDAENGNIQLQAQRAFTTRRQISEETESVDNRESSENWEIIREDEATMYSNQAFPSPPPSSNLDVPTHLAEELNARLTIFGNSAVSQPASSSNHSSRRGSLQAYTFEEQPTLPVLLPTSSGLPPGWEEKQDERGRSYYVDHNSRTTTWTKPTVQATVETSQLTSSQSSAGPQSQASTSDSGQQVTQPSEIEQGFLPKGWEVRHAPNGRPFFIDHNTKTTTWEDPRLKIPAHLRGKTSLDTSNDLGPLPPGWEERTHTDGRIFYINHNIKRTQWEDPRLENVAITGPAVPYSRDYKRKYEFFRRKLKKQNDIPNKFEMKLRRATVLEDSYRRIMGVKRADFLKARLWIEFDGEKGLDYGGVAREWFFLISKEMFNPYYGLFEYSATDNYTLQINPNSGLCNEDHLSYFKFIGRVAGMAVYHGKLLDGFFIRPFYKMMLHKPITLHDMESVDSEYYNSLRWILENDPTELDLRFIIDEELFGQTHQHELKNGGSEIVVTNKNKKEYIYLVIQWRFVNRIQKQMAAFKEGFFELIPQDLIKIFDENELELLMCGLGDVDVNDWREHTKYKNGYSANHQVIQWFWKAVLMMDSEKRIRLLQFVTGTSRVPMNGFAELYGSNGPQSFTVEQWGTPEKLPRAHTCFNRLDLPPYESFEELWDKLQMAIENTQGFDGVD
UniProt Q9UGV2: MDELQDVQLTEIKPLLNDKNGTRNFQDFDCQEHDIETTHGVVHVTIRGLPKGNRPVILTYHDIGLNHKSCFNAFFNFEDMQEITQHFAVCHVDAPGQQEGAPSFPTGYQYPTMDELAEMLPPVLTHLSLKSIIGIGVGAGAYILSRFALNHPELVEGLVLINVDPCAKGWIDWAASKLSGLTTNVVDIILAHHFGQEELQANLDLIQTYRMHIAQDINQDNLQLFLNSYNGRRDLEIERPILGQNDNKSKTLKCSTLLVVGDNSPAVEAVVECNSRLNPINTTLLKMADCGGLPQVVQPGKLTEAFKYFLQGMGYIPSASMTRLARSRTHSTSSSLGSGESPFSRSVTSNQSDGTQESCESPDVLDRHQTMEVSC
UniProt O00221: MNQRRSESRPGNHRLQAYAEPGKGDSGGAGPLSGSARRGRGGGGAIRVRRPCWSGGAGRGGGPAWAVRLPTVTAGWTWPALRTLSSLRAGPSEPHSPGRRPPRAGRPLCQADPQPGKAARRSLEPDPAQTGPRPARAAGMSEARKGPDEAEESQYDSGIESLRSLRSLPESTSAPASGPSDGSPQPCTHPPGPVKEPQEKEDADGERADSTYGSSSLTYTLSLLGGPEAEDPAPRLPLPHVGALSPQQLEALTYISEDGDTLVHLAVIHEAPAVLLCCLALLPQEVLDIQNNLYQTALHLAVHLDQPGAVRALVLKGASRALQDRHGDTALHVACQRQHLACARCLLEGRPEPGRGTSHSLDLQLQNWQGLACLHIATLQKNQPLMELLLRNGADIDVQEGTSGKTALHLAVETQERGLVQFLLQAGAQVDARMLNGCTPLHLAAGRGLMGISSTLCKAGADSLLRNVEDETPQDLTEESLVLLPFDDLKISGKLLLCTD
UniProt Q6NW34: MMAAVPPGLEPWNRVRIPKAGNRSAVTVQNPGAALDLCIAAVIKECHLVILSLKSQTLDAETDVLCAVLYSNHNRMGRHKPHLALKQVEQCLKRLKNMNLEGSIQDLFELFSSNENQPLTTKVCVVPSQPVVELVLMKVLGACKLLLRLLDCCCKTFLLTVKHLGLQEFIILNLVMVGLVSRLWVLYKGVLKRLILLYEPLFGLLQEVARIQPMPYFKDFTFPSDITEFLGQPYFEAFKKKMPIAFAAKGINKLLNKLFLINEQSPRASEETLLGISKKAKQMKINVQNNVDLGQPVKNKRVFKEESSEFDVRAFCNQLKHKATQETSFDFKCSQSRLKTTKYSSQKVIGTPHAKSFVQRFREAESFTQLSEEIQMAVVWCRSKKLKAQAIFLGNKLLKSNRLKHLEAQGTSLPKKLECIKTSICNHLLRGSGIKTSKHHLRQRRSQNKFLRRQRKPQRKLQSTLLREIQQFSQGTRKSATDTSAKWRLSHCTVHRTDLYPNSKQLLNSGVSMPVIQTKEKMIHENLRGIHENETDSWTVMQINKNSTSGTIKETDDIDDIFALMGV
UniProt Q86Y39, whole entry, looked up: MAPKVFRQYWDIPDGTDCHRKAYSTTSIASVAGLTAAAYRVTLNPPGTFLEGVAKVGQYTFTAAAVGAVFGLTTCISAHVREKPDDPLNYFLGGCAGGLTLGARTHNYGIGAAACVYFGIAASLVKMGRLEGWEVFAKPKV
UniProt Q9Y697: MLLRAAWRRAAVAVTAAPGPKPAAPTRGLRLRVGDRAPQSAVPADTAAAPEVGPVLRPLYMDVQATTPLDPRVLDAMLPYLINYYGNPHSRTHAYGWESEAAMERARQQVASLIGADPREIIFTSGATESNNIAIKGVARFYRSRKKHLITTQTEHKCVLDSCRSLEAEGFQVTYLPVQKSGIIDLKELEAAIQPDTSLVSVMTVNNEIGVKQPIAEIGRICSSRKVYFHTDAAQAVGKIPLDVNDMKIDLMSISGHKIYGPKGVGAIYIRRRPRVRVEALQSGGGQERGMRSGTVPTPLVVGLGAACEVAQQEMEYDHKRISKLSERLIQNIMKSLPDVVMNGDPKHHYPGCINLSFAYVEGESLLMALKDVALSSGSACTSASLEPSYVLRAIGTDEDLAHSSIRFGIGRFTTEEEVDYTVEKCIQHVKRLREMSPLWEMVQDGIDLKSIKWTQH

Compound: Cc1cn(-c2cc(NC(=O)c3ccc(C)c(Nc4nccc(-c5cccnc5)n4)c3)cc(C(F)(F)F)c2)cn1 [nilotinib]
Experiment: log2 fold change, soluble protein after heating vs DMSO (PISA); higher = thermal stabilisation; K562 lysate, 10 uM; active = over 0.2 and 3.5 SD of the protein, either way, in both replicates (recomputed)
Outline: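 K562 pellets were dounce-homogenised in PBS pH 7.4 containing 1 mM MgCl2, and the crude extract, at 1 mg/mL protein, was exposed to 10 μM compound for 30 min. Aliquots were heated for 3 min across 48°C-58°C, pooled, brought to 0.5% NP-40 at 4°C and spun at 21,000xg for 90 min, with the supernatant taken as soluble protein. TMTpro 16plex LC-MS/MS with equalised channel sums quantified that protein. Values are log-two fold changes in thermal stability relative to solvent controls, taken from duplicates.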

log2 fold change, inactive:
NIPSNAP3A (UniProt Q9UFN0) 0.001
NEDD8 (UniProt Q15843) 0.004
NDUFAF4 (UniProt Q9P032) 0
NDUFV1 (UniProt P49821) -0.028
NEU1 (UniProt Q99519) 0.063
NDRG2 (UniProt Q9UN36) 0.035
NDUFAB1 (UniProt O14561) 0.051
NIFK (UniProt Q9BYG3) 0.033
NFU1 (UniProt Q9UMS0) 0.027
NDC80 (UniProt O14777) -0.008
NEDD1 isoform 3 (UniProt Q8NHV4) -0.053
NIP7 (UniProt Q9Y221) 0.024
NIT1 (UniProt Q86X76) -0.002
NDUFA10 (UniProt O95299) 0.002
NFIC (UniProt P08651) -0.058
NLRP2 (UniProt Q9NX02) -0.002
NEDD4 isoform 4 (UniProt P46934) -0.007
NDRG3 (UniProt Q9UGV2) 0.027
NFKBIE (UniProt O00221) -0.074
NEPRO (UniProt Q6NW34) 0.137
NDUFA11 (UniProt Q86Y39) 0.092
NGLY1 (UniProt Q96IV0) -0.004
NFS1 (UniProt Q9Y697) -0.007

2 consecutive entries from above, for reference:
log2 fold change, inactive:
NEPRO (UniProt Q6NW34) 0.137
NDUFA11 (UniProt Q86Y39) 0.092
